Data as given in PubChem BioAssay AID1259308 (NCATS, 2017).

Aim: 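Knock-downs that increase output of a recombinant reporter protein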 (primary screen)
System: human HEK293 embryonic kidney cells stably expressing firefly luciferase (HEK-CMV-Luc2-Hygro)
Knock-down reagent: single siRNA against human genes, 0.8 pmol siRNA per well
Timing: 72 h
Read-out: 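Luciferase light (ONE-Glo) measured on one replicate plate set and viability (CellTiter-Glo) on the other, scaled to a negative control siRNA, with robust z-scores and luciferase per cell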
Reading the numbers: total luciferase, z-score: higher = more reporter protein produced
Call rule: 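An siRNA counts as active if its total luciferase robust z-score exceeds 3; genes with two or more such siRNAs out of three were retested with fresh siRNAs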
Calls: active = raised luciferase; inactive = no rise
In all, the deposit lists about 59,000 reagents; shown is an unselected part. In the full data, about 1,510 (2.6%) are marked active. 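Calls use total luciferase alone and ignore viability, so some active siRNAs may act by altering cell number.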 The numbers tell different reagents against one gene apart. Not all columns of the deposit are shown.

NDUFA11 (NADH:ubiquinone oxidoreductase subunit A11) #1
- total luciferase, z-score: -1.19
- call: inactive

NDUFA11 (NADH:ubiquinone oxidoreductase subunit A11) #2
- total luciferase, z-score: -0.139
- call: inactive

NDUFA11 (NADH:ubiquinone oxidoreductase subunit A11) #3
- total luciferase, z-score: 0.0122
- call: inactive

UGDH (UDP-glucose 6-dehydrogenase) #1
- total luciferase, z-score: 0.564
- call: inactive

UGDH (UDP-glucose 6-dehydrogenase) #2
- total luciferase, z-score: 2.13
- call: inactive

UGDH (UDP-glucose 6-dehydrogenase) #3
- total luciferase, z-score: 0.435
- call: inactive

VIPR2 (vasoactive intestinal peptide receptor 2) #1
- total luciferase, z-score: 0.804
- call: inactive

VIPR2 (vasoactive intestinal peptide receptor 2) #2
- total luciferase, z-score: 0.509
- call: inactive

VIPR2 (vasoactive intestinal peptide receptor 2) #3
- total luciferase, z-score: 2.08
- call: inactive

DRC2 (dynein regulatory complex subunit 2) #1
- total luciferase, z-score: -0.274
- call: inactive

DRC2 (dynein regulatory complex subunit 2) #2
- total luciferase, z-score: -0.201
- call: inactive

DRC2 (dynein regulatory complex subunit 2) #3
- total luciferase, z-score: -0.938
- call: inactive
